Reference: publication doi:10.1101/2025.02.28.640897
Results are given in words; binding and its absence hold for the method and conditions named. Binding seen in cells or lysates may run through a third protein. Some results given as binding are weak or reduced against the parent protein; the word gives no strength.

Chains of the proteins cited; added tags and fusions are not shown. Lines headed by an entry give the natural chain unless they say otherwise; changes in a name come on top. Residues count along the entry.
UniProt Q5SWA1: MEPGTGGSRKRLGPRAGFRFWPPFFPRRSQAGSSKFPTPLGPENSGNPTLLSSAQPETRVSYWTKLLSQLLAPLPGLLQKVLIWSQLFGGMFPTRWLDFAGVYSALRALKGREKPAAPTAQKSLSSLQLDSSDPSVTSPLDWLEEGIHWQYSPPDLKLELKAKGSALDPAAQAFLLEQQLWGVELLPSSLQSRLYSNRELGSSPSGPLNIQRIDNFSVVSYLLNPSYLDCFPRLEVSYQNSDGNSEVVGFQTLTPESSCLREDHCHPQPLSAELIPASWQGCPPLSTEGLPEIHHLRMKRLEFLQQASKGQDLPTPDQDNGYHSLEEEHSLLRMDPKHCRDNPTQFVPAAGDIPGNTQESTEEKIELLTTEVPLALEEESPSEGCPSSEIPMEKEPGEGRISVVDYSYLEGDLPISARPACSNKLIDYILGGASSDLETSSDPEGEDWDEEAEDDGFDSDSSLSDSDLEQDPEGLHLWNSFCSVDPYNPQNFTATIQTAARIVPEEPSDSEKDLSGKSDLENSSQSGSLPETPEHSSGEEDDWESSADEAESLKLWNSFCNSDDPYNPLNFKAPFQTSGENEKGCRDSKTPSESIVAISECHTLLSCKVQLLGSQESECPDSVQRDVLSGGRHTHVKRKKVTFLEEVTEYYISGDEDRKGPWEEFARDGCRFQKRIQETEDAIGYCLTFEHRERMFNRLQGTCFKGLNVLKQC
GFP-ΔPPP1R15B: residues 638-697 of Q5SWA1
UniProt P62136: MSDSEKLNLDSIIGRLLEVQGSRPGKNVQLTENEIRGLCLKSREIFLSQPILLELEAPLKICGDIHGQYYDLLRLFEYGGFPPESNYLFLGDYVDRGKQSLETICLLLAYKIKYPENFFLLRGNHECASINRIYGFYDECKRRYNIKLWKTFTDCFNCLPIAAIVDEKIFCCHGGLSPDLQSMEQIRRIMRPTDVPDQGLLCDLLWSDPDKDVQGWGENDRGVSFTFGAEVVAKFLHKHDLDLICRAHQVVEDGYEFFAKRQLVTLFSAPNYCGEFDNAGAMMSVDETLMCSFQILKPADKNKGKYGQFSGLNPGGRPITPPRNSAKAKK

Experiments:
Assay in all cases: co-IP
GFP-ΔPPP1R15B = GFP-ΔPPP1R15B (UniProt Q5SWA1)
[1] = target: PPP1R15B^R658C (GFP-tagged) (UniProt Q5SWA1)
WT PPP1R15B (GFP-tagged) = WT PPP1R15B (GFP-tagged) (UniProt Q5SWA1)

Measured: binding

PP1 (from UniProt P62136 1-330) (enzyme)
binds: all assays above
